Measurements reported in PubChem BioAssay AID743448 (Peter MacCallum Cancer Centre, 2014)

- Assay: 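Third-round triage of 106 confirmed candidates in four colon lines under two drugs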 (follow-up of hits)
- System: four human colon cancer cell lines: HCT116-VR (vorinostat-resistant HCT116 derivative), SW480, SW620 and LIM1215
- Reagent: siRNA pool against human genes, 40 nM siRNA pool
- Time to read-out: drug added two days after transfection, read one day later
- Treatment: vorinostat 2.5 µM on one half of each plate, etoposide 5 µM on the other half
- Detection: 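Caspase luminescence and viability fluorescence, each expressed relative to mock transfection and also as robust z-scores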
- Direction: caspase ratio to mock: higher = more caspase activity than mock; viability ratio to mock: higher = more live cells than mock
- Hit rule: 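Hit means caspase ratio to mock at least 1.6, or viability ratio to mock at most 0.75; wells with strong death in the absence of drug get no call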
- Meaning of the calls: active = caspase or viability hit in this panel; inactive = no change, or unhealthy well
The deposit covers 106 reagents; shown is a part drawn at random. 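Calls are per line and drug panel including etoposide, not vorinostat-specific; gene picks needed hits in two or more extra lines with vorinostat versus etoposide.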 A number with no mark means an inactive call. Further read-outs or replicates are left out here. Reagent sequences are not shown.

PRRT3 (proline rich transmembrane protein 3), cell line and drug panel LIM1215 cells with etoposide gave caspase ratio to mock 2.11; viability ratio to mock 0.96.
For PRRT3 (proline rich transmembrane protein 3), cell line and drug panel LIM1215 cells with vorinostat, the entry reads caspase ratio to mock 2.17 (active); viability ratio to mock 0.99.
With PRRT3 (proline rich transmembrane protein 3), cell line and drug panel SW480 cells with etoposide the deposit lists caspase ratio to mock 2.73 (active); viability ratio to mock 0.86.
With PRRT3 (proline rich transmembrane protein 3), cell line and drug panel SW480 cells with vorinostat, the values are caspase ratio to mock 2.12 (active); viability ratio to mock 0.88.
PRRT3 (proline rich transmembrane protein 3), cell line and drug panel SW620 cells with etoposide scored caspase ratio to mock 0.8; viability ratio to mock 0.88.
With PRRT3 (proline rich transmembrane protein 3), cell line and drug panel SW620 cells with vorinostat, the entry reads caspase ratio to mock 1.21; viability ratio to mock 0.98.
PRRT3 (proline rich transmembrane protein 3), cell line and drug panel vorinostat-resistant HCT116 cells with etoposide gave caspase ratio to mock 1.44; viability ratio to mock 1.06.
PRRT3 (proline rich transmembrane protein 3), cell line and drug panel vorinostat-resistant HCT116 cells with vorinostat scored caspase ratio to mock 1.73 (active); viability ratio to mock 1.07.
For MTF2 (metal response element binding transcription factor 2), cell line and drug panel LIM1215 cells with etoposide, the values are caspase ratio to mock 2.5 (active); viability ratio to mock 0.96.
MTF2 (metal response element binding transcription factor 2), cell line and drug panel LIM1215 cells with vorinostat scored caspase ratio to mock 2.16 (active); viability ratio to mock 0.93.
For MTF2 (metal response element binding transcription factor 2), cell line and drug panel SW480 cells with etoposide the deposit lists caspase ratio to mock 1.77 (active); viability ratio to mock 0.78.
MTF2 (metal response element binding transcription factor 2), cell line and drug panel SW480 cells with vorinostat gave caspase ratio to mock 1.08 (active); viability ratio to mock 0.72.
MTF2 (metal response element binding transcription factor 2), cell line and drug panel SW620 cells with etoposide gave caspase ratio to mock 1.5; viability ratio to mock 0.81.
MTF2 (metal response element binding transcription factor 2), cell line and drug panel SW620 cells with vorinostat gave caspase ratio to mock 1.29; viability ratio to mock 0.92.
MTF2 (metal response element binding transcription factor 2), cell line and drug panel vorinostat-resistant HCT116 cells with etoposide scored caspase ratio to mock 3.12 (active); viability ratio to mock 0.73.
For MTF2 (metal response element binding transcription factor 2), cell line and drug panel vorinostat-resistant HCT116 cells with vorinostat, the entry reads caspase ratio to mock 2.48 (active); viability ratio to mock 0.68.

Just “caspase ratio to mock”, for 4 of the entries above:
MTF2 (metal response element binding transcription factor 2), cell line and drug panel SW620 cells with etoposide	1.5
MTF2 (metal response element binding transcription factor 2), cell line and drug panel SW620 cells with vorinostat	1.29
MTF2 (metal response element binding transcription factor 2), cell line and drug panel vorinostat-resistant HCT116 cells with etoposide	3.12 (active)
MTF2 (metal response element binding transcription factor 2), cell line and drug panel vorinostat-resistant HCT116 cells with vorinostat	2.48 (active)

Continued:
MRPL19 (mitochondrial ribosomal protein L19), cell line and drug panel LIM1215 cells with etoposide scored caspase ratio to mock 2.04 (active); viability ratio to mock 1.
MRPL19 (mitochondrial ribosomal protein L19), cell line and drug panel LIM1215 cells with vorinostat gave caspase ratio to mock 1.45; viability ratio to mock 1.02.
MRPL19 (mitochondrial ribosomal protein L19), cell line and drug panel SW480 cells with etoposide scored caspase ratio to mock 1.54; viability ratio to mock 0.89.
With MRPL19 (mitochondrial ribosomal protein L19), cell line and drug panel SW480 cells with vorinostat, the entry reads caspase ratio to mock 2.05 (active); viability ratio to mock 0.92.
MRPL19 (mitochondrial ribosomal protein L19), cell line and drug panel SW620 cells with etoposide gave caspase ratio to mock 2.03 (active); viability ratio to mock 1.
MRPL19 (mitochondrial ribosomal protein L19), cell line and drug panel SW620 cells with vorinostat scored caspase ratio to mock 1.4; viability ratio to mock 1.02.
MRPL19 (mitochondrial ribosomal protein L19), cell line and drug panel vorinostat-resistant HCT116 cells with etoposide scored caspase ratio to mock 1.52; viability ratio to mock 1.03.
With MRPL19 (mitochondrial ribosomal protein L19), cell line and drug panel vorinostat-resistant HCT116 cells with vorinostat the deposit lists caspase ratio to mock 1.59; viability ratio to mock 1.03.
OSBPL6 (oxysterol binding protein like 6), cell line and drug panel LIM1215 cells with etoposide scored caspase ratio to mock 3.19 (active); viability ratio to mock 1.03.
With OSBPL6 (oxysterol binding protein like 6), cell line and drug panel LIM1215 cells with vorinostat, the values are caspase ratio to mock 2 (active); viability ratio to mock 1.1.
With OSBPL6 (oxysterol binding protein like 6), cell line and drug panel SW480 cells with etoposide, the entry reads caspase ratio to mock 1.71 (active); viability ratio to mock 1.01.
OSBPL6 (oxysterol binding protein like 6), cell line and drug panel SW480 cells with vorinostat showed caspase ratio to mock 1.68 (active); viability ratio to mock 1.
For OSBPL6 (oxysterol binding protein like 6), cell line and drug panel SW620 cells with etoposide, the entry reads caspase ratio to mock 1.32; viability ratio to mock 1.02.
OSBPL6 (oxysterol binding protein like 6), cell line and drug panel SW620 cells with vorinostat scored caspase ratio to mock 1.23; viability ratio to mock 0.98.
OSBPL6 (oxysterol binding protein like 6), cell line and drug panel vorinostat-resistant HCT116 cells with etoposide scored caspase ratio to mock 1.49; viability ratio to mock 1.06.
For OSBPL6 (oxysterol binding protein like 6), cell line and drug panel vorinostat-resistant HCT116 cells with vorinostat the deposit lists caspase ratio to mock 1.7 (active); viability ratio to mock 1.04.
